# According to patent publication US11529390B2 (INSTITUT DE CARDIOLOGIE DE MONTREAL, priority 2015, dated 2022):
# End groups of sequences in plain letters are not given here.
# Assay: Fmoc solid-phase peptide synthesis; rink amide resin
# Details: whole synthesis, analytical RP-HPLC (Kinatex EVO C18); ESI-TOF MS
sequence,measurement,value
YGWSGNMERIMKAQAYQTGKDISTNYY,final HPLC purity,95% purity or greater
